# PMC13061415
# Amino acid sequences for entries named in this document (tags omitted). A change or cut given only in a name is not applied to a line headed by its entry. Chains listed by the source or under a name are the forms on record and can include a tag or linker. Residues count along the entry.
# Twa1 CTLH-CRA domain (58-190), wild type (Q9D7M1, residues 58-190): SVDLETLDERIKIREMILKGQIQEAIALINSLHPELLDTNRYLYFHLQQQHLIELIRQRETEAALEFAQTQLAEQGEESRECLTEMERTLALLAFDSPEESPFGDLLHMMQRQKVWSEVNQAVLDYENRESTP
# Twa1_3 mutant (L122R, A151R), CTLH-CRA domain (Q9D7M1, form named): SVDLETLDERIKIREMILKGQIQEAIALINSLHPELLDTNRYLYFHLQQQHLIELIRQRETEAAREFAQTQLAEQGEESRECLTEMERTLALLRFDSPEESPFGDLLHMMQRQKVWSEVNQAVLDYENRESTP
# Twa1_10 mutant (A130Q, L147F, F152Y, F160V), CTLH-CRA domain (Q9D7M1, form named): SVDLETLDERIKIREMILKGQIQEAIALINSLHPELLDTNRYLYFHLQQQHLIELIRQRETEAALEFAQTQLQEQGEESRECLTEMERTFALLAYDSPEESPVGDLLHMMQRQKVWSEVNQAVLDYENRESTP
# muskelin CTLH-CRA domain (205–735 Δ248–625) (Q99PV3, form named): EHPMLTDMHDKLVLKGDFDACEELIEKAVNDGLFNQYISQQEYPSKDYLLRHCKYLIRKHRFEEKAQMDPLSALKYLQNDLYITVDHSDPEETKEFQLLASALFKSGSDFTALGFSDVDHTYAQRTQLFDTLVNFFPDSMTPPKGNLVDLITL
# No constants are given. Whether binding was seen depends on the method and setting. Some entries that bind do so weakly or less than the wild type.
# Experiments:
# [1] = biological target: T1, Maea CTLH-CRA domain (156-279) (mouse) (UniProt Q4VC33); assay: native gel or EMSA; native agarose gel electrophoresis (NAGE): CTLH-CRA domains at 200 μM incubated with the partner at least 30 min at room temperature; 0.8% agarose, 25 mM Tris, 200 mM glycine, 4°C; Coomassie; both purified
# T1 sequence: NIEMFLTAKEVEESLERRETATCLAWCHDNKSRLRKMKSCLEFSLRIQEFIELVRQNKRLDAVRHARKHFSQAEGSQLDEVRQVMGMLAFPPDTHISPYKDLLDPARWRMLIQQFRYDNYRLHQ
# [2] = biological target: Twa1 CTLH-CRA domain (58-190), wild type (mouse) (UniProt Q9D7M1); assay: ITC; muskelin CTLH-CRA (160 μM, syringe) titrated into RanBP10 or Twa1 CTLH-CRA variants (16 μM, cell); 25°C; 20 mM tricine pH 8.0, 500 mM NaCl, 1 mM TCEP; one-site model; both purified
# [3] = biological target: muskelin CTLH-CRA domain (205–735 Δ248–625) (rat) (UniProt Q99PV3); assay: SEC-MALS; purified CTLH-CRA domains alone or mixed (RanBP10 and Twa1 variants with Maea or muskelin), final concentration 250 μM, Superdex 75 10/300 GL; both purified
# [4] = biological target: Twa1_10 mutant (A130Q, L147F, F152Y, F160V), CTLH-CRA domain (mouse) (UniProt Q9D7M1); assay: native gel or EMSA; native agarose gel electrophoresis (NAGE): CTLH-CRA domains at 200 μM incubated with the partner at least 30 min at room temperature; 0.8% agarose, 25 mM Tris, 200 mM glycine, 4°C; Coomassie; both purified
# [5] = biological target: Twa1 CTLH-CRA domain (58-190), wild type (mouse) (UniProt Q9D7M1); assay: as above
Substance,binding [1],binding [2],binding [3],binding [4],binding [5]
"Twa1_3 mutant (L122R, A151R), CTLH-CRA domain (from UniProt Q9D7M1 58-190) (domain or fragment)",no binding (tested: 200 μM),,,,
muskelin CTLH-CRA domain (205–735 Δ248–625) (from UniProt Q99PV3 205-735) (domain or fragment),,no binding (tested: 160 μM muskelin titrated into 16 μM Twa1),binds weakly,no binding (tested: 200 μM),no binding (tested: 200 μM)
